Drawing on PubChem BioAssay (NCATS), this text covers AC50, max response and viability change for 12 molecules.

As a reminder, the AC50 is the concentration giving half of the maximal activity seen.

Experiment [1] in a line: qHTS Assay for Inhibitors of PDE-IV (AID 607). Conditions: HEK293 ACTOne CNG channel cells, membrane potential fluorescence; measured here: parental cell counter-screen. In outline: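 Cell-based read-out of cAMP via a modified cyclic nucleotide-gated channel and membrane potential dye (535/590 nm) in HEK293 cells expressing PDE4 endogenously. Compounds tested up to 22.9 uM final; 100 uM RO 20-1724 reference.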
(In qHTS, concentration-response curves come from the screen itself.)

Experiment [2] can be described thus: qHTS Assay for Lipid Storage Modulators (AID 1519). The following applies: Drosophila S3 cells, BODIPY lipid droplet/cell ratio, laser cytometry, cells loaded with oleic acid. In outline:
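Cells seeded at 5,000 per well were treated with compounds over a concentration series and loaded with oleic acid (400 uM, as added). Lipid droplet fluorescence (488 nm excitation, 500-530 nm channel) was read by laser-scanning cytometry and normalized to 20 uM Triacsin C.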

The nature of experiment [3]: Nrf2 qHTS screen for inhibitors: Validation (AID 493153). The following applies: A549 ARE-Fluc reporter, 18-24 h; AC50: CellTiter-Fluor fluorescence read, measured here: cytotoxicity CellTiter-Fluor AC50; viability change: measured here: cytotoxicity max response. In outline:
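A549 ARE_Fluc, 5% FBS OPTI-MEM; cpd titration, 18-24 h, 37°C/5% CO2. Read 1: CellTiter-Fluor (Ex 405/Em 525), cytotox. Read 2: luciferase lum, Nrf2 activity.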

Experiment [4] can be described thus: qHTS Assay for Modulators of Human Peripheral Myelin Protein 22 (PMP22) Expression/Activity (AID 1967). Conditions: Cell-based PMP22 reporter, dual-color luciferase ratio. The procedure, abridged:
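Mouse MSC80 Schwann line, Pmp22 promoter–CBG68 reporter, EF-alpha–CBR internal control. 24h compound exposure, 37 °C/5% CO2, DMEM + 10% FBS. Readout: corrected green/red luminescence ratio, normalized to untreated cells; concentration-response curves fitted and classified.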

Experiment [5] is described as follows: qHTS Validation Assay to Find Inhibitors of Chronic Active B-Cell Receptor Signaling (AID 485345). Conditions: ABC-DLBCL cells, chronic BCR signaling reporter. In outline:
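Read-out: ratio of filter-corrected green (IkappaBalpha fusion) to red (native) luciferase signal in doxycycline-induced TMD8 cells after 4 h at 37C. Titration spanned 46 uM–3 nM; Data were normalised to basal cells and 10 uM MG-132 wells.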

A short description of experiment [6]: qHTS assay for small molecule antagonists of glucocorticoid receptor signaling (AID 588533). Conditions: HeLa MMTV-bla, GRE beta-lactamase ratio, antagonist mode, 18 h; measured here: W530 channel AC50.
A short description of experiment [7]: qHTS assay for small molecule antagonists of peroxisome proliferator-activated receptor gamma signaling (AID 588537). The following applies: HEK293 PPARg-UAS-bla, beta-lactamase ratio, antagonist mode; measured here: W460 blue channel. In outline: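 Antagonist-mode β-lactamase reporter screen run as a titration series. HEK293 PPARγ-UAS-bla cells are stimulated with rosiglitazone (50 nM final) for 16 h, then CCF4 is read at 460/530 nm. Data are scaled between DMSO and rosiglitazone and fitted to the Hill equation.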

Experiment [8] is described as follows: qHTS assay for small molecule agonists of retinoid X receptor alpha signaling (AID 588544). Conditions: HEK293T RXRa-UAS-bla, beta-lactamase reporter, 18 h; 530 nm emission.
Experiment [9] can be described thus: qHTS assay for small molecule antagonists of retinoid X receptor alpha signaling (AID 588546).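 Further: cells stimulated with 9-cis-retinoic acid as agonist; on the % scale 0 is the no-effect control and ±100 the full control effect.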 The following applies: HEK293T RXRa-UAS-bla, beta-lactamase ratio, antagonist mode; measured here: W530 green channel, cytotoxicity proxy. In outline: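 Beta-lactamase reporter inhibition, read as CCF4 fluorescence ratio (ex 405, em 460/530 nm) after 2 h at RT. HEK293T UAS-bla cells, 2500/well, were stimulated with 9-cis-RA at 500 or 100 nM final alongside test compound for 18 h at 37 C.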

Setting [10] is: measured here: cell count channel max response.
Where [11] appears, read: measured here: cell number channel AC50.
Setting [12] is: measured here: lipid (BODIPY) channel AC50.
Where [13] appears, read: measured here: lipid channel max response.
Where [14] appears, read: measured here: green reporter channel AC50, mouse Pmp22 promoter in mouse Schwann cells.
[15] abbreviates: measured here: red reporter channel AC50, EF-alpha promoter control reporter in MSC80 mouse Schwann cells.
[16] abbreviates: measured here: CBR control luciferase (viability counter).

Structures are written as SMILES. Several values for one entry are separate records, joined by “and”; a condition that tells them apart may be missing. Equal entries are not always repeated. Some of the results follow. These are further read-outs of the screen, such as a control signal, another cell line or another target. No call is given for them. The list favours compounds with an active or inconclusive main result. For some assays here: The note in brackets gives the kind of curve behind each potency; many fits are weak.

For `CS(=O)(=O)Nc1ccc([N+](=O)[O-])cc1Oc1ccccc1`, the AC50 was 15.8 µM [rising, partial curve, poor fit] in experiment [1]; 39.8 µM [rising, single point] in experiment [2] (setting [11]); 39.8 µM [rising, single point] in experiment [2] (setting [12]); 9.2 µM [falling, partial curve] in experiment [3]. Also, the max response worked out at 49.9% in experiment [2] (setting [10]) and 48% in experiment [2] (setting [13]). In addition, in experiment [3], the viability change was -35.5%.
As for `CC[C@H](NC(=O)c1c(C)c(-c2ccccc2)nc2ccccc12)c1ccccc1`, the AC50 was 15.8 µM [rising, partial curve] and 10 µM [rising, partial curve] in experiment [1]; 8.91 µM [rising, partial curve] in experiment [2] (setting [11]); 11.2 µM [rising, partial curve] in experiment [2] (setting [12]); 60.1 µM [falling, partial curve, poor fit] in [4] (setting [14]); 67.5 µM [falling, partial curve, poor fit] in [4] (setting [15]). For the same molecule, the max response in experiment [2] (setting [10]) is 94.7% and -7.09%; in experiment [2] (setting [13]), 120% and -9.02%.
For the molecule `Clc1ccc2c(c1)N=C(N1CCNCC1)c1ccccc1N2`, the max response in experiment [2] (setting [10]) was 59.1%; in experiment [2] (setting [13]) it was 80.6%. The half-maximal activity concentration (AC50) in [2] (setting [11]) was 25.1 µM [rising, partial curve]; in experiment [2] (setting [12]), 28.2 µM [rising, partial curve]; in experiment [5] (measured here: CBG/CBR ratio read-out) it was 18.4 µM [falling, single point].
As for `O=C1Cc2c([nH]c3ccc(Br)cc23)-c2ccccc2N1`, the max response in experiment [2] (setting [10]) was 67.8% and -62.9%; in experiment [2] (setting [13]), 76.3% and -68.3%. Besides, the AC50 is 1.41 µM [rising, full curve] and 31.6 µM [falling, partial curve, poor fit] in [2] (setting [11]); 1.26 µM [rising, full curve] and 3.55 µM [falling, full curve, poor fit] in [2] (setting [12]); 0.135 µM [rising, full curve, poor fit] in experiment [4] (setting [15]); 2.91 µM [falling, single point] in experiment [5] (setting [16]).
Consider `c1cnc2c(c1)ccc1cccnc12`, for which the max response in experiment [2] (setting [10]) is 43.7%; in [2] (setting [13]) it was 45.7%; in [8] it was 16.6%; in experiment [9] it was -2.23%. The AC50 in [2] (setting [11]) is 39.8 µM [rising, single point]; in experiment [2] (setting [12]), 39.8 µM [rising, single point]; in experiment [4] (setting [15]), 9.53 µM [falling, full curve]; in [3], 8.2 µM [falling, partial curve]; in experiment [6], 10 µM [rising, full curve, poor fit]; in experiment [7], 2.51 µM [falling, full curve]. Also, the viability change in experiment [3] was -41.9%.
In the case of `OC[C@H]1O[C@@H](n2cnc3c(NC4CCCC4)ncnc32)[C@H](O)[C@H]1O`, the max response in [2] (setting [10]) amounted to 62%; in [2] (setting [13]) it was 65.3%. The AC50 in [2] (setting [11]) was 15.8 µM [falling, single point]; in experiment [2] (setting [12]), 15.8 µM [falling, single point]; in experiment [4] (setting [14]), 42.6 µM [falling, partial curve]; in [4] (setting [15]), 95.3 µM [falling, single point].
With `CC(C)Cn1c(=O)n(C)c(=O)c2[nH]cnc21`, the max response was 19.7% and 36.5% in experiment [2] (setting [10]); 34.7% and 50.9% in experiment [2] (setting [13]). For the same molecule, the AC50 was 0.0224 µM [rising, full curve, poor fit] in experiment [2] (setting [11]); 39.8 µM [rising, single point] and 39.8 µM [rising, partial curve, poor fit] in experiment [2] (setting [12]); 0.58 µM [falling, partial curve, poor fit] in experiment [5] (setting [16]).
`NS(=O)(=O)c1cc2c(cc1Cl)NCNS2(=O)=O`: the max response is 53.7% in experiment [2] (setting [10]) and 54% in experiment [2] (setting [13]). In addition, the AC50 in experiment [2] (setting [11]) is 15.8 µM [falling, single point]; in experiment [2] (setting [12]) it was 15.8 µM [falling, single point]; in experiment [4] (setting [15]), 95.3 µM [falling, single point]; in experiment [7] it was 89.1 µM [rising, single point].
For `CC(C)C(=O)c1c(C(C)C)nn2ccccc12`, the max response was 80.4% and -22.1% in [2] (setting [10]); 111% and -22.6% in experiment [2] (setting [13]). The AC50 in experiment [2] (setting [11]) is 11.2 µM [rising, partial curve, poor fit]; in experiment [2] (setting [12]), 14.1 µM [rising, partial curve] and 7.94 µM [falling, single point]. For the same molecule, the viability change in experiment [3] is -1.27%.
For the molecule `Cc1nc2c(OCc3ccccc3)cccn2c1CC#N`, the max response in [2] (setting [10]) is 104% and 45.8%; in experiment [2] (setting [13]) it was 138% and 39.6%. Besides, the AC50 in [2] (setting [11]) was 2.51 µM [rising, full curve]; in experiment [2] (setting [12]), 2.24 µM [rising, full curve]; in experiment [4] (setting [14]), 23.9 µM [rising, full curve, poor fit]; in experiment [5] (setting [16]), 6.51 µM [rising, single point].
`O=C(O)CC/C=C\C[C@@H]1CO[C@H](c2ccccc2Cl)O[C@@H]1c1ccccc1O`: the AC50 was 15.8 µM [rising, single point] in [1]; 25.1 µM [rising, partial curve, poor fit] in experiment [2] (setting [11]); 28.2 µM [rising, partial curve, poor fit] in [2] (setting [12]). Further, the figures for the max response in experiment [2] (setting [10]) and in experiment [2] (setting [13]) were 39.8% and 53.9%, respectively.
Turning to `Cc1nc2cnc(Oc3cccc(Cl)c3)nc2n(Cc2ccc(F)cc2)c1=O`, the AC50 in experiment [1] was 10 µM [rising, single point]; in experiment [2] (setting [11]) it was 2.82 µM [rising, full curve, poor fit]; in experiment [2] (setting [12]), 3.16 µM [rising, full curve]. Besides, the max response in experiment [2] (setting [10]) was 29%; in [2] (setting [13]), 34.4%.
